The values that follow come from paper PMC12370185.

This is one part of the list. At the low end of the ranking the order means little.

For this experiment, the system named is KLF4 + histone octamer. In words: Pioneer-seq (competitive nucleosome EMSA with sequencing). To be noted: 10 mM Tris-Cl pH 7.5, 50 mM NaCl, 1 mM DTT, 0.25 mg/ml BSA, 2 mM MgCl2, 0.025% Nonidet P-40, 5% glycerol; 28 nM nucleosome library; 10 min on ice then 30 min …; high values mean tight binding; double strand, one strand shown. For orientation: Mobility shift assays separate free from complexed probe on a gel.
As for “GATGGACCCTATACGCGGCCTGGGTTCTGAGAGCCTTCAGGACATGTGTCACCGCAGACGACGTTTTAACTTGTAGTGCTAGCTGCTTGTTTCAACTTGCTCCACAAAGGAAAAATAACTATTATGGTCTGGGTGGCACTGGGAAAACATCTTCCATCTTCTAGACCTAGAAGTGAGACTTTTAGCTGAAGAAATGGACTCCAAGTCCAGTGCCAGTCGGATAGTGTTCC”, the binding signal (log2 relative supershift) was -0.637.

In the case of “GATGGACCCTATACGCGGCTACCAGAGACTGGACAATTTACAAAAGAAAGTGATTTATTGGACTTAACAGTTCCATGTGGCTGGGGAGGCCTCACAATCACAGTGGAAGGTGAAAGGCAAAAGGCACATCGCACATGGTGGCAGACAGGAGAACAGAGCTTGTGCAGGGAGAATGCCCTTTTACATCATATCTCAAGAGACATATTCACTTGCCAGTCGGATAGTGTTCC”, the binding signal (log2 relative supershift) was -0.0422.

As to “GATGGACCCTATACGCGGCACACATCAGGAAAGATGGCAAGCAGAACGAGAACTAGTGCTACAAAAAGTGATCTCACTGTAACAGCATGGGTGGGCCTGGAAGTCAGTTCTCATGCAACCCCATTAGTTCTAGAAAGTTCTCATATGACTAAGAAAAAGCTGACAGGAATCAAACAGATTTCATCATTAAGCAAACAGAAAACATCAAGTTGCCAGTCGGATAGTGTTCC”, the binding signal (log2 relative supershift) is -0.591.

In the case of “GATGGACCCTATACGCGGCATTATGTACACAGTCTCATGGACAAAGGCATTTGTCAAGTCTCTATGATATTTCTAGAAATACCTTACAGGGCATTATGACTATACAAAGTCAGGGTAGGGCAGCAGAATGCCTGTCTTCAAGACTCTCCATCCCAATGCTCAGGACTTGTTATGCTACTCAGACCAGCATCTTTTGCACAAAGTATTTGTTGCCAGTCGGATAGTGTTCC”, the binding signal (log2 relative supershift) was -0.247.

As for “GATGGACCCTATACGCGGCTAAAGTCCTTCAACATGTGAACAGACACTGTTTCTGAGGCTGTCACACACATGCAGGGAAAAGGATTTACCTTACAAAACAATGTTGCTTTGATAATACCACATCTGCAACCCTAATTGTGCCTTTGTAGCAAGTTGGTTTGGCCATTGGTCATCCTCCACAGCACTGCAATTTATCCTCCAGGAACACATTGCCAGTCGGATAGTGTTCC”, the binding signal (log2 relative supershift) is -0.209.

On to “GATGGACCCTATACGCGGCTTGAAAGCCAAACTCTTAGATGTTGTGCATGTCGAAACTGGAACAAAGATTATAATGCAAGTTCAATTTTCCTCAAATATGGATCTCAACATTAATTGTGGTATGCAGCTCACCCACAGCCTTGGGTGTGGTCTATGAATGCAGCTGCTACTCTGTTCTACAATTATTGTATTTTATTGCCATTATGACTGTGCCAGTCGGATAGTGTTCC”, for which the binding signal (log2 relative supershift) is -0.165.

Take “GATGGACCCTATACGCGGCTCTACTTCTTGTTTCTTTCCTTGCTATTTAATACTTAAAGTGTGGTGCCCCACTTGTTTGCCAGGAGCAGTATCACATCAGACTCTGCTGTTAACAAGGTCCCCAGGTGATTCATATGCACATTAAAGTTCATTTTGCACCTCTTTTGGCATTGACTTTACTTTCAGTGGCCTATTTTATGTAATGTAAAATGCCAGTCGGATAGTGTTCC”: the binding signal (log2 relative supershift) is -0.726.

Take “GATGGACCCTATACGCGGCATGATTCTCGCCAGTGGTATTAACATATCCTCAGTGGTGAGTATTAACATGGAACTTACTCCAACAATACAGATGCTGAATAAATGTAGTCTAAGTGAAGGAAGAAGGAAAGGTGGGAGCTGCCATCACTCAGAATTGTCCAGCAGGGATTGTGCAAGCTTGTGAATAAAGACAGAGGTTATTGAACAGCGTGCCAGTCGGATAGTGTTCC”: the binding signal (log2 relative supershift) was -0.222.

For the sequence “GATGGACCCTATACGCGGCGAGTAAACCAGTCTGCCTGTGAGAGTATTGACTGTGGTTAAGAATGCGGGATTGTGTTGCAAAGAAGCTCAGGCCTGTAATGTTATCACTCAGCAGGACTGGGTCCCATCAGAAGGCACATGGTGTGCCATGACGTAGCTGGTCTTCGACCACAAAAGCAGACTTTTCTCTGTGAATTAGACAAACCACACTGCCAGTCGGATAGTGTTCC”, the binding signal (log2 relative supershift) was -0.557.

For “GATGGACCCTATACGCGGCTGCTGGAATGTTCCTGTATTGCCTGCTTTAGCATGTGTGTTGGCAGGGTGTAGATACATACACCCCCACAACGACCCTCCTCCCACCCTATGTAAATGTACTCACTCTACAGCATTGTAAAGGATTTCATTGTGCCATTTTGTTTTCAGAATCATCTTTCACTCTTTTGTGAGTATAATGATAGTAGCTGTTGCCAGTCGGATAGTGTTCC”, the binding signal (log2 relative supershift) is -0.209.

On to “GATGGACCCTATACGCGGCTGTGAAATAACCTGCATTAGAATTACCTGGTGGACAACACATATTAACAATGCATATTCTGAGTCCTCAAAGAACTATCAAATAAGAATCTTTGAGGTGGGGCTACACAATCTCCATCACTGGCAAGCACTCCCAGTACTTCTTATGCACATTACAATTCAAGAACCACTCATGGCTCACATAACTGCTCATGCCAGTCGGATAGTGTTCC”, for which the binding signal (log2 relative supershift) is -0.0652.

“GATGGACCCTATACGCGGCTTTGGTTTTCCATATTTATATCCTATATACTTGTGTGTACAATGCAAGCTTTGTTATGCTGTATCTGGCCAGTGTTTTCTTCCCTTTACAACAGGCAGTAACTGTAGCTGTGCATAATGTACCTGACAGTGAAGGTGGCTGGCTATTGAAGTCTCTTGTTGGGCAACGTTTGTGCTGGCACAGCCATGGTATGCCAGTCGGATAGTGTTCC”: the binding signal (log2 relative supershift) was -0.0453.

Turning to “GATGGACCCTATACGCGGCTATAGAGATTGAATGGAAGAGTGCCTTGGAAAGTGTCTCTACCAAATGGCACCTGAGCTGAATGTTGTAGAATAAGAGCTGTTCATCAGGATGACAATGGGAGGGGAGGAGGCTGAGATAAAGGCATTTCAAATGGAGGGAATAGCAAAGATGTGGAAGCATGGCCTGTCATTAAACTGCAAGTAGTTCAGTGCCAGTCGGATAGTGTTCC”, the binding signal (log2 relative supershift) was -0.387.

For the sequence “GATGGACCCTATACGCGGCGAACAATCAAGAGCTGTTTCTCTTTGCTCTTCCTCATAGCCATGCTGGAGGCATTCATAGGCACATCCTGGTGGAGGGTGATTTGGGTGGGTAGGAATGGACTTGTTCTGTTGACATTGGCATGAAAGGACTAGAGTGCATCCATCATTCTATGGGTATTTAATGGGCCCTATGTTGAGCTGTGTTCTGGTTGCCAGTCGGATAGTGTTCC”, the binding signal (log2 relative supershift) was -0.126.

“GATGGACCCTATACGCGGCTGTGTTTTAAAAAAGAAGTATTTCTTGCAAACACTTATGACTTGTCTATGTCTTCTACAAGTCTGGACATGTCTTGGAACATTATCTGTGTTCTGTGGGTTACAAGGCTTGTCGAGGTCAAAGTACTCAGACATGAGACAGGCACCTTGTATACTCCAGAGAGCTAGAAATACTTGGAGATTAAGTCTAGTTGCCAGTCGGATAGTGTTCC”: the binding signal (log2 relative supershift) was -0.264.

On to “GATGGACCCTATACGCGGCTGGGATTTGGGAATGATGTGTGTGAATTAGAGAGATTTCGAGACCTGAAATAGAGAAAAGCAAGTTAAGACATCAACTGGGGCCCAGAAACAGCACTACAGCGGGGACGACCCACCTCTCAGATGCCTGGTGAGATAAAGAAAGGTCTGGCTGACTCCACTGCCCAGTACTGTGAAGCAGCAGTGAAGACTTGCCAGTCGGATAGTGTTCC”, for which the binding signal (log2 relative supershift) is -0.0256.

As to “GATGGACCCTATACGCGGCTTAATTCCTCCACTCTTGCAAGTGTACTTAATAGCTCACACAAAGCAAGAAGCATAACCGCAAGAACACAGAGAAGCCTGCCCTGCCAGGTTTATTGTGTGCCTGGCTGCGTGATTATTGTTTTGCATATAACCTCACAGAGGAAATCCTGTGTCAGGCACTTCCAGAGCCTCATGTAGTTTTACTGGATGTGCCAGTCGGATAGTGTTCC”, the binding signal (log2 relative supershift) is -0.583.

As to “GATGGACCCTATACGCGGCGAATGGTGGCTGGACTCTATTAGGCTCCAAACTCTCATGTGCCTGAGCGCCAGCTCCCTCTCTAAACATAAGCATCTCGGGGCTGGAGGTGGGGGGAAATTTTCTGATGCATCTTTCTTTGCCATGTAATTCCTACCCCAGGATCATGCTCACATAAGTGTTCTTGGAATATGTGAGTAAGTGACTGAAAATGCCAGTCGGATAGTGTTCC”, the binding signal (log2 relative supershift) is -0.075.

In the case of “GATGGACCCTATACGCGGCTCATGGAATCCTTCATTAGCTCCATTTCTTAGCAGAAAAGGTTGTGCAGCATATGCCATATCATACTGGATATGCCCCATCTCATGATGAGCTGTCAGGAAGTCGTCCATTGTCACCTTTGTGCACATAAGGATCCTGCATGAAAATGGACAAGATGAAAATGAATCTCACTGACTTTCATTTAACCATTATGCCAGTCGGATAGTGTTCC”, the binding signal (log2 relative supershift) was -0.496.

For “GATGGACCCTATACGCGGCTGAAACAATCCTTACTCAGAGAGTGGATTTGCATCTCTAATAGAGTTCAGGCTCTGTTTGTGAAAGGCTTTTGCTAGGCCTGACCCCATGTCTCAGGAGCACATTGATACCCAGCGCCTTGCCTTTGCCTTGTCCCACACCACAGAGAGCAGTATCATGGGAAAATGCACTAACCTAAAAGAAAGCAAAGGTGCCAGTCGGATAGTGTTCC”, the binding signal (log2 relative supershift) is -0.222.

Regarding “GATGGACCCTATACGCGGCCACTATTTCACGACCTTGCACATAGTTCATTTGTTTCATACATCACACACTGTTGTGTTACGTATTGACATGGCTGTCTTCACAACTAGGCTCTGAGCACCTTAAAGGCTGGGACTGACGCCAGTCACAATCTAATGCAAAGGACAGTGCTGTTATGGAAATGTTTATTGAACTGAACTGAAAATCCTGCCTGCCAGTCGGATAGTGTTCC”, the binding signal (log2 relative supershift) is -0.403.

Turning to “GATGGACCCTATACGCGGCACACAAACTCTTTCCCCCTTGTCCGTTTGCAGGCTCTCTCATCTGGCACCTATAGTGACACCTGCTCCTTTGAGTGGCCCCTTGCCCAGGACACAGCTGTGTTCCTTCATGGCATCATTTGTGTGCTGGCTCAGGCCAGCCTATGGTCCCTGCTCCCCAAGCCTCTCACTGAAGAGAAAGGCACTGAAAGGTGCCAGTCGGATAGTGTTCC”, the binding signal (log2 relative supershift) was -0.059.

On to “GATGGACCCTATACGCGGCTTTTAAAAATCAATGGCTGATAATACTGTTATCTGTGGTTATACAGCTGATACCAGCATTAAGGACCAAGGTGTCTGTACTAGTGTTTGTATTGCAGGAGGTGGAGAGCGAACAATACCATGAAAAGCAACAAGTTCCTGTGTGCTGCTATATTTGGATAAGAGAGGAAGAATGAGATGGAGGGACTTGTTTGCCAGTCGGATAGTGTTCC”, for which the binding signal (log2 relative supershift) is -0.182.
